# Reference: PubChem BioAssay AID1259308 (NCATS, 2017)
# Screen: 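Genes whose loss raises luciferase production in HEK293 cells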 (primary screen)
# Cells: human HEK293 embryonic kidney cells stably expressing firefly luciferase (HEK-CMV-Luc2-Hygro)
# Reagents: single siRNA against human genes, 0.8 pmol siRNA per well
# Timing: 72 h
# Measured: 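Luciferase light (ONE-Glo) measured on one replicate plate set and viability (CellTiter-Glo) on the other, scaled to a negative control siRNA, with robust z-scores and luciferase per cell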
# Scale: total luciferase, z-score and total luciferase, % of control: higher = more reporter protein produced
# Rule for the call: 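An siRNA counts as active if its total luciferase robust z-score exceeds 3; genes with two or more such siRNAs out of three were retested with fresh siRNAs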
# Meaning of the calls: active = raised luciferase; inactive = no rise
# Here is a random part of about 59,000 deposited reagents. Of all reagents, about 1,510 (2.6%) are marked active. 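Calls use total luciferase alone and ignore viability, so some active siRNAs may act by altering cell number.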 Reagents against one gene are numbered here. Further read-outs or replicates are left out here.
gene,reagent,"total luciferase, z-score","total luciferase, % of control",Outcome
SCO2,1,1.6,114,inactive
SCO2,2,0.775,97.3,inactive
SCO2,3,-1.24,57.3,inactive
TSLIG3B,1,0.113,84.1,inactive
TSLIG3B,2,0.225,86.4,inactive
TSLIG3B,3,-1.35,55,inactive
MED27,1,-1.92,43.8,inactive
MED27,2,-1.24,57.3,inactive
MED27,3,-1.55,51.1,inactive
WFS1,1,0.402,89.9,inactive
WFS1,2,-0.758,66.8,inactive
WFS1,3,2.61,134,inactive
NCAPH,1,1.58,113,inactive
NCAPH,2,-0.944,63.1,inactive
NCAPH,3,-0.0704,80.5,inactive
TCP11L2,1,0.828,98.4,inactive
TCP11L2,2,-0.186,78.2,inactive
TCP11L2,3,-0.672,68.5,inactive
SFT2D1,1,-1.06,60.8,inactive
SFT2D1,2,-0.43,73.3,inactive
SFT2D1,3,-0.0427,81,inactive
CELF5,1,2.43,130,inactive
CELF5,2,2.3,128,inactive
CELF5,3,-0.622,69.5,inactive
EPS15L1,1,0.0613,83.1,inactive
EPS15L1,2,-0.0732,80.4,inactive
EPS15L1,3,0.139,84.6,inactive
TMEM273,1,-0.379,74.3,inactive
TMEM273,2,0.668,95.2,inactive
TMEM273,3,-1.07,60.7,inactive
DOLPP1,1,-0.636,69.2,inactive
DOLPP1,2,-0.124,79.4,inactive
DOLPP1,3,0.327,88.4,inactive
DOCK6,1,0.564,93.1,inactive
DOCK6,2,-0.618,69.6,inactive
DOCK6,3,0.265,87.2,inactive
CHURC1,1,0.351,88.9,inactive
CHURC1,2,-0.00364,81.8,inactive
CHURC1,3,1.72,116,inactive
GALNT15,1,-0.408,73.8,inactive
GALNT15,2,3.67,155,active
GALNT15,3,0.364,89.1,inactive
MESD,1,-0.343,75.1,inactive
MESD,2,0.516,92.1,inactive
MESD,3,-1.97,42.7,inactive
ALG3,1,-0.379,74.4,inactive
ALG3,2,1.72,116,inactive
ALG3,3,8.17,244,active
SSU72,1,2.37,129,inactive
SSU72,2,-0.313,75.7,inactive
SSU72,3,1.21,106,inactive
FAM241B,1,-0.851,65,inactive
FAM241B,2,-0.00632,81.8,inactive
FAM241B,3,-1.25,57,inactive
MINK1,1,-0.739,67.2,inactive
MINK1,2,0.175,85.4,inactive
MINK1,3,-1.37,54.6,inactive
